Laboratory results as given in patent US20100113504A1, “AMIDE COMPOUNDS AND THEIR USE AS ANTITUMOR AGENTS” (SIGMA-TAU INDUSTRIE FARMACEUTICHE RIUNITE S.P.A., priority 2007, published 2010).
pIC50: −log10 of the molar value. Some entries share one result that the patent states for a list of compounds. At least one structure is not confirmed: it was looked up by name or label, or the drawing left a doubt.

Test system: NB4, NCI-H460 and HCT-116 tumor cells
Experiment: Cytotoxicity summarised over the three tumor cell lines
Type: cell-based, human
Conditions: mean over NB4, NCI-H460, HCT-116; 24 h of treatment
Procedure: Tumor cells were seeded in 96-well tissue culture plates at approximately 10% confluence and were allowed to attach and recover for at least 24 h. […] The plates were incubated for 24 h at 37° C. At the end of the treatment, for NB4 tumor cells in suspension, the procedure was performed as follows: medium culture was removed by centrifugation of the plates at 1600×g for 10 min and the surnatant was removed. 250 μl PBS were added, then the plates were centrifuged at 1600×g for 10 min, the surnatant was removed. […] The plates were centrifuged again at 1600×g for 10 min, the medium culture was removed and 200 μl PBS and 50 μl of cold 80% TCA were added. The plates were incubated on ice for at least 1 h. TCA was removed, the plates were washed 3 times for immersion in distilled-water and dried before on paper, then in a thermostater at 40° C. Subsequently 200 μl of 0.4% sulphorodamine B in 1% acetic acid were added. The plates were incubated at room temperature for other 30 min. Sulphorodamine B was removed, the plates were washed for immersion in 1% acetic acid for 3 times, then they were washed and dried on paper. […] The survival cell was determined as optical density by a Multiskan spectrofluorimeter at 540 nm. […]
The amount of cells killed was calculated as the percentage decrease in sulphorodamine B binding compared with control cultures.

Structure (SMILES): COc1ccc(CO[C@@H](CCCCCC(=O)NO)C(=O)Nc2ccccc2)cc1 [(S)-9d, 2-(S)-(4-Methoxybenzyloxy)octanedioic acid 8-hydroxyamide 1-phenylamide]
- pIC50: > 6.00
